Assay results published in PMC7819943, “Rice protein-binding microarrays: a tool to detect cis-acting elements near promoter regions in rice”.
The other results are listed elsewhere or left out.

Amino acid sequences for entries named in this document (tags omitted).
UniProt Q0JBA9, entry or part of it: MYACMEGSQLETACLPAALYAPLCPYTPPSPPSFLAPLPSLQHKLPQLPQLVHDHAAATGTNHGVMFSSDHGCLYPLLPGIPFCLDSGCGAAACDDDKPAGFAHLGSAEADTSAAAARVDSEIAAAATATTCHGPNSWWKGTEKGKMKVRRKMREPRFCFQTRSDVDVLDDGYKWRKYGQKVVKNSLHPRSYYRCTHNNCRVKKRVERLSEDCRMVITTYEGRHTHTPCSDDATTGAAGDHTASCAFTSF

The sequences below were run against OsWRKY34 (Oryza sativa, UniProt Q0JBA9 1-250) (assay: protein-binding microarray (RPBM); PBS, 2% BSA, 51.3 ng/ul salmon testes DNA, 50 uM zinc acetate, 200 nM TF, 25 C, 1 h; high values mean tight binding). Settings: protein: recombinant; tags: N-terminal polyhistidine and DsRed monomer fusion (pET32a); label: CyDye5-dUTP incorporated in the synthesized complementary strand; 3' TTTTT single-stranded linker to array surface; dsDNA, one strand shown.
In short: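 For the binding signal, per-feature fluorescence intensity was read in arbitrary units on an Axon 4000B scanner. Before scanning, a 2% BSA-blocked custom Agilent array made double-stranded with Cy5-dUTP was washed after 1 h at 25 °C with 200 nM protein and 50 µM zinc acetate. The proteins were Ni–NTA-purified transcription factors with N-terminal polyhistidine and DsRed fusions, expressed in E. coli BL21-CodonPlus.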

| Sequence | binding signal |
| --- | --- |
| TCATTGGTACTTTCACAATCACATTCCCATTTTGCGTTTTCGGAGTCACCTAGTGCAG | 9950 fluorescence intensity (a.u.) |
| GTGGGGTCCCTTCTTGCTCTATGCTAATTAATGGTAAATTCGGAGTCACCTAGTGCAG | 8880 fluorescence intensity (a.u.) |
| GATGGATTTTGGTTTGTGGAATTGTGCAGGAGAGTTGCTGCGGAGTCACCTAGTGCAG | 8440 fluorescence intensity (a.u.) |
| GGAGAGAGAGGACAGGAGGGGAGGGCTGAGCTCGTTGGGTCGGAGTCACCTAGTGCAG | 12200 fluorescence intensity (a.u.) |
| GCTCATGCTAGCCCTGTCATTTTCAGTCCTAAATTAAATCCGGAGTCACCTAGTGCAG | 8480 fluorescence intensity (a.u.) |
| GCTAGCTGGATTGGTGGGTGGGCGCGTCAAGAAGGGGATGCGGAGTCACCTAGTGCAG | 9830 fluorescence intensity (a.u.) |
| GTTATCGCTATATCTCAGTGTAATCTAATCGCATTCGCTACGGAGTCACCTAGTGCAG | 9700 fluorescence intensity (a.u.) |
| ATCTGAAAGCAAATATCACAAGTGCTGGGGTGCTGGGGTCCGGAGTCACCTAGTGCAG | 9760 fluorescence intensity (a.u.) |
| TATATATTGTTTCATGAGATATAAAACTTACTTGATCTTTCGGAGTCACCTAGTGCAG | 8300 fluorescence intensity (a.u.) |
| ACATTAAAATTGTCCCGTGACTTCACTTTTCCACGGTATCCGGAGTCACCTAGTGCAG | 8090 fluorescence intensity (a.u.) |
| GGCTTTGGATTTTTTTTTCTTTTTTCTTTGGCCTGAATAGCGGAGTCACCTAGTGCAG | 9160 fluorescence intensity (a.u.) |
| ACCACTGCAATCTCGCCCCGCCGCACGCACTCCACTAGCTCGGAGTCACCTAGTGCAG | 12400 fluorescence intensity (a.u.) |
| GGTCGCTTGTCGCTGCCTCTACCTCGTCCTCTGCTGATTTCGGAGTCACCTAGTGCAG | 9200 fluorescence intensity (a.u.) |
| TATATGTATTGGTTGGAAGTTCTGTAAAATTTGAAGCTTCCGGAGTCACCTAGTGCAG | 8280 fluorescence intensity (a.u.) |
| GCAGATTTGTTCAAGTTACATAGTTACACTCTAGTTACATCGGAGTCACCTAGTGCAG | 8780 fluorescence intensity (a.u.) |
| CTGTACTGGTTTAGACTATCTCAGCTCACTTATCTCTTCACGGAGTCACCTAGTGCAG | 10200 fluorescence intensity (a.u.) |
| AATGCAACCATTAAGTTGTCGTTTAGTTGACTTTGTCTACCGGAGTCACCTAGTGCAG | 8690 fluorescence intensity (a.u.) |
| GGCACAATGTACTGGAATTATCCTTTTTCTTTCTCTGTAACGGAGTCACCTAGTGCAG | 10500 fluorescence intensity (a.u.) |
| GATATTTTTGCCGGTATTTTGGTACGTTATTCGTGTTTGACGGAGTCACCTAGTGCAG | 8090 fluorescence intensity (a.u.) |
| ACTTACTTATCCTTAGTCATTGTGCCAAGATGAAATATGACGGAGTCACCTAGTGCAG | 8480 fluorescence intensity (a.u.) |
| AGCCGTTCGACTCTTTTGTGAATTCACGGGCTCACAGTATCGGAGTCACCTAGTGCAG | 9770 fluorescence intensity (a.u.) |

Looked up above:
AGCCGTTCGACTCTTTTGTGAATTCACGGGCTCACAGTATCGGAGTCACCTAGTGCAG | binding signal: 9770 fluorescence intensity (a.u.)
GCAGATTTGTTCAAGTTACATAGTTACACTCTAGTTACATCGGAGTCACCTAGTGCAG | binding signal: 8780 fluorescence intensity (a.u.)
GATGGATTTTGGTTTGTGGAATTGTGCAGGAGAGTTGCTGCGGAGTCACCTAGTGCAG | binding signal: 8440 fluorescence intensity (a.u.)

The listing continues.

| Sequence | binding signal |
| --- | --- |
| ACTACCTCCATACACCAACCCTACGCATACACCAAACACACGGAGTCACCTAGTGCAG | 9860 fluorescence intensity (a.u.) |
| CGTCTGTTCTTATCACCTTCTTGCTCCGGTACCTAGCCAACGGAGTCACCTAGTGCAG | 8780 fluorescence intensity (a.u.) |
| CTCTGCGGCGGCGGCGGCTGCGAGGTTTTTCTCTCTCTTCCGGAGTCACCTAGTGCAG | 11600 fluorescence intensity (a.u.) |
| GGAGGTGGGGATGGTGGGAGGTTTTGGTTTGGTAAAATAGCGGAGTCACCTAGTGCAG | 19800 fluorescence intensity (a.u.) |
| TGTTTGATTATGTTCAATCATTGCAAATCATGTCATCTGTCGGAGTCACCTAGTGCAG | 9230 fluorescence intensity (a.u.) |
| ACCTACATATCACTAAGTAATCAACTGTATTAGTGACTTACGGAGTCACCTAGTGCAG | 8110 fluorescence intensity (a.u.) |
| CTCAACCCCACCCTCCTTATACCGAGAAGACTTTTTCTTCCGGAGTCACCTAGTGCAG | 8160 fluorescence intensity (a.u.) |
| TGGTCATAGAAGATCCAAAGGGATCGGCGTTTTTTTCTCCCGGAGTCACCTAGTGCAG | 8560 fluorescence intensity (a.u.) |
| CAACTCCAACCCAATTACAAACCCAAACTCGCTTCGCTTTCGGAGTCACCTAGTGCAG | 8240 fluorescence intensity (a.u.) |
| GGATGGTGCAGTTCATAGTTTCATACCTTTGGTTTTTGGTCGGAGTCACCTAGTGCAG | 9950 fluorescence intensity (a.u.) |
| GAAGCTGTCTTGCATGAGACCCAATTTCTTTCTCTCTTCACGGAGTCACCTAGTGCAG | 8340 fluorescence intensity (a.u.) |
| CCAACCAAGCCCGCCATTGTCTCGTCGCAATGGCGGCGTCCGGAGTCACCTAGTGCAG | 9750 fluorescence intensity (a.u.) |
| ATCTTCTATTTTTTTGTTGTTGAGATATATATGATCACGTCGGAGTCACCTAGTGCAG | 11600 fluorescence intensity (a.u.) |
| AATCCTGCATAACGGTTTTTTTTCTTTTCAGACGATGACGCGGAGTCACCTAGTGCAG | 10700 fluorescence intensity (a.u.) |
| ACACCTTTACCAATTCGTTTTTATCTACCTTGTGATATGTCGGAGTCACCTAGTGCAG | 8260 fluorescence intensity (a.u.) |
| GCACAAGTAGTCTATTATGGCGTTTTATTTTATTTTGTTACGGAGTCACCTAGTGCAG | 9790 fluorescence intensity (a.u.) |
| CTGCTCCTGAGGGGTAGGGAGGGAGGGGAAGGAGCACGTTCGGAGTCACCTAGTGCAG | 13200 fluorescence intensity (a.u.) |
| GTTGCATTCCATTAGTGCTTCTCTCTGAATCTTTTGTTTTCGGAGTCACCTAGTGCAG | 9570 fluorescence intensity (a.u.) |
| GGAGAAAAAGGGGAGGGAGGGAGATGATGACGTGTAGGGGCGGAGTCACCTAGTGCAG | 8550 fluorescence intensity (a.u.) |
| GATCTGAACTTGGAACGGGCTCCATCTCTTATTTGCAACGCGGAGTCACCTAGTGCAG | 8670 fluorescence intensity (a.u.) |
| GATTTGGGGATTTGGGGTTTGATTTAGGATGTGCATGCCACGGAGTCACCTAGTGCAG | 21400 fluorescence intensity (a.u.) |
